Experimental data as given in PMC12185567.

Test system: T1, KstR-His (Nocardia terpenica IFM 0406)
T1 sequence (looked up): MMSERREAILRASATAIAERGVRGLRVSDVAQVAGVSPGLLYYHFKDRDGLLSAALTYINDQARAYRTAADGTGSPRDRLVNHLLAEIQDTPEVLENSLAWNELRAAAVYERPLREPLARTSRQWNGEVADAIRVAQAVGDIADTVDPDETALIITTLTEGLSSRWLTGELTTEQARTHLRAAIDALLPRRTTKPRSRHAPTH
Test: EMSA
Settings: EMSA and DNase I footprinting; recombinant protein; residues 1-203; protein details: C-terminal His6; probe letters rebuilt from the primers and the genome

GCAGCGCGGCGACGGCTTCGACACCGTGGATCTGCAAGCGTTCGCACAGGGCCGCCGGGGCGGACGCTACTGGTTCACCCGCGGCTGGAACGTGCCCGCGACCGCGGCCTGGGCGGCCGGATCGATCTTCGGCATCCTCACCGTCGACACCACGCTCTACACCGGCCCGCTCGCGGGCATCGCGGGGGGGATCGATGTGAGCACCCTCGGCTCGGCCCTGGTCACCGCCGTGATCTACCCGATCGCGCTGCGGCTGTCGGGCGCGCCCCGGCGGGCGGCGGCTCGCCACGAGGAAACCGCTGCGCTCACGGCGCCGACGGAGTAAATTCATTACTGACTGAGTTTTCAGTTCGTCTGTACAAGGAGGTACCCCGCACCATGGCCCGATCCTTCGTCGTCG (double strand) [33470p]
binding result: binds

Tags and fusion partners may be left off the protein sequences shown.
